Source: patent US20070196376A1
No constants are given. Whether binding was seen depends on the method and setting. Some results given as binding are weak or reduced against the parent protein; the word gives no strength.

Amino acid sequences for entries named in this document (tags omitted). A change or cut given only in a name is not applied to a line headed by its entry. Residues count along the entry.
UniProt P17936, residues 28-291: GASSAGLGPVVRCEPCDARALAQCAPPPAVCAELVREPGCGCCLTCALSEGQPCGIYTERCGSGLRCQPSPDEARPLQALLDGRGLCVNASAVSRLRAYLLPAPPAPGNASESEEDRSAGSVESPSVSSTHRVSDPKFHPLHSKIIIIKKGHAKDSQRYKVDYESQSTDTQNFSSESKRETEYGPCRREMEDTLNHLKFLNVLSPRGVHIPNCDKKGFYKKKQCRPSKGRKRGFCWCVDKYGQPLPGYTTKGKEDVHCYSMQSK
UniProt P01344: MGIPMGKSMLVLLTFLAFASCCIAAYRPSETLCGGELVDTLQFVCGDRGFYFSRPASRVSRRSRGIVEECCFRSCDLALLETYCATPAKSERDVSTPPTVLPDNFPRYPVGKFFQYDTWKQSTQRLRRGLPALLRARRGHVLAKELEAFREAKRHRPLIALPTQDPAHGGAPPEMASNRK
UniProt P05019: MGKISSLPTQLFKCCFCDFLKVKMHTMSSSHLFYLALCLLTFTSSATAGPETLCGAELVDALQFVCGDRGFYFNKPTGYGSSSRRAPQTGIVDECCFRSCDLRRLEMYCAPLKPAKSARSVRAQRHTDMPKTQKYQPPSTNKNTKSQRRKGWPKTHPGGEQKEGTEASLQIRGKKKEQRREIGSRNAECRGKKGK

Experiments:
Test in all cases: Biacore, mAb immobilised on CM5, analyte flowed; grade relative to IGF binding
[1] = target: IGF-binding protein 3 (IGFBP-3) (UniProt P17936)
[2] = target: IGF-II/IGFBP-3 complex (UniProt P01344)
[3] = target: IGF-I/IGFBP-3 complex (UniProt P05019)

Row | binding [1] | binding [2] | binding [3] | Binder
1 | binds | binds | binds | mAb 7.34.1 (antibody, V domains shown) VH: QVQLQESGPGLVKPSETLSLTCTVSGGSISSYYWSWIRQPPGRGLEWIGYFFYSGYTNYNPSLKSRVTMSVDTSKNQFSLKLSSVTAADTAVYYCACITGTTKGGMDVWGQGATVTVSS VL: QSVLTQAPSVSGAPGQRVTISCTGRSSNIGAGYDVHWYQQFPGTAPKLLIYGNSNRPSGVPDRFSGSKSGTSASLAITGLQAEDEADYYCQSYDSSLSGSVFGGGTKLTVLG
2 | binds | binds | binds | mAb 7.251.3 (antibody, V domains shown) VH: QVQLQESGPGLVKPSETLSLTCTVSGGSISSYYWSWIRQPPGKGLEWIGYFFYSGYTNYNPSLKSRVTISVDTSKNQFSLKLSSVTAADTAVYYCACITGTTKGGMDVWGQGTTVTVSS VL: QSVLTQPPSVSGAPGQRVTISCTGSSSNIGAGYDVHWYQQLPGTAPKLLIYGNNNRPSGVPDRFSGSKSGTSASLAITGLQADDEADYYCQSFDSSLSGSVFGGGTKLTVLG
3 | binds | binds | binds | mAb 7.159.2 (antibody, V domains shown) VH: QVQLVQSGAEVKKPGASVKVSCKASGYTFTSYDINWVRQATGQGLEWMGWMNPNSGNTGYAQKFQGRVTMTRNTSISTAYMELSSLRSEDTAVYYCARDPYYYYYGMDVWGQGTTVTVSS VL: QSVLTQPPSVSAAPGQKVTISCSGSSSNIENNHVSWYQQLPGTAPKLLIYDNNKRPSGIPDRFSGSKSGTSATLGITGLQTGDEADYYCETWDTSLSAGRVFGGGTKLTVLG
